Results published in paper PMC11056506.
Results are given in words; binding and its absence hold for the method and conditions named. Binding seen in cells or lysates may run through a third protein. Some entries that bind do so weakly or less than the wild type.

Protein sequences, listed by entry. Tags and fused reporters are not part of them.
UniProt O08573: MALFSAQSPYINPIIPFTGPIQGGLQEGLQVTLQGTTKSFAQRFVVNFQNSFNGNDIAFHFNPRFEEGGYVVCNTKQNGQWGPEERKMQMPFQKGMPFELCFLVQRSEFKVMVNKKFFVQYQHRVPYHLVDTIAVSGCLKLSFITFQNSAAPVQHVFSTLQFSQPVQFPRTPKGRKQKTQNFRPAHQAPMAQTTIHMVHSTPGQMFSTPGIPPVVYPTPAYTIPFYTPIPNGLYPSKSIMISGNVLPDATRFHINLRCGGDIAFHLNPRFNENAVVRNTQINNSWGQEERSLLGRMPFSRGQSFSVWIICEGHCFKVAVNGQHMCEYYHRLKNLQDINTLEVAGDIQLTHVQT

Target: Galectin-9 (mouse (endogenous in mouse intestinal tissue)) (UniProt O08573)
Assay: co-IP; lysates of mice intestinal tissues immunoprecipitated with IP antibody-coupled agarose beads, then western blotting; IgG as negative control; IP antibody not named

B1: Carcinoembryonic antigen-related cell adhesion molecule 5 (CEACAM5) (protein, UniProt Q3UKK2 35-947)
chain: QITIELEPPQVIEGENVLIRVNNLTENLITLAWFRGMRIKSPQIGQYTPATKVTVLGPGHSGRETLYSNGSLQIYNVTQEDIGFYSLRIINKHAEIVSITSIYLNVYSSLWTCEHPSPHAKLTIESVPPGISEGGSVLLLVKNLPQNLLSLFWYKGVIAVKKFEIARHIKATNSSVPGPAHTGRETVFSNGSLLLQEVMQSDTGFYTLRTMSTDLKDEVAHVQLYMDTYLLTCYHPLQVKIESLPQNVAVGKTVLLLVHNLPEDFQAFFWYKSAYRRDTYKIAEYKRAMDATILGSAYSSREFIYNNGSMLIIDVTEDDAGYFLLEILREDLKIEKAYIQLHVNSFVSNSKDSASTARLSIESVPPSIVEGGSVLLLVHNLPKNLQSLFWYKGMIAEKKSELIQHIIATSSSLPGPAHSGRETVYNNGSLLLQRVMQNDTQFYTLQTMDTDLKYEVAHVQLQLDTSLSTWYHPLQVKIESLPRNVAVGKSVLFLVHNFPEVFRAFSWYKPAYKSHTSKIVEYHRFTDSATVGAAYRGIEVIFTNGSMVMIDVTEDDAGFYMLEILREDFKVEKAYVQLHVNSFVPNSKVSVSTARLSIESVPPSIVGGESVLLLVHNLPKNLQSLFWYKGVIAEEKSELIQHIIATSSSLPGPAHSGRETVYSNGSLLLQRVMQNDTGFYTLLTMSTDLKDEIAHVQLQLDTSTCCSLLTSDQLIIVPVPRNIAVGKSVLLLVCNVPKDVQTIFWYKSVYRTDIFKIAEYSRSMESTIWGLAHSGKEMVYTNGSLLIQNVTEHDAGLYMLEILHKDYKLERAHVQVHVNNPVSWPFVRVTDTTVRVQSSVVFTCFSADPGVSIRWLFNKQSLQLTERMTLSPSKCQLSIDPVWREDAGKYQCEVSNPVSSKSSLPVRLAVIEE
- binding: binds
